Paper PMC6386500, “Structural insights into the inhibition properties of archaeon citrate synthase from Metallosphaera sedula” (PLoS ONE, 2019)

Chains of the proteins cited; added tags and fusions are not shown.
UniProt A4YGX6, entry or part of it: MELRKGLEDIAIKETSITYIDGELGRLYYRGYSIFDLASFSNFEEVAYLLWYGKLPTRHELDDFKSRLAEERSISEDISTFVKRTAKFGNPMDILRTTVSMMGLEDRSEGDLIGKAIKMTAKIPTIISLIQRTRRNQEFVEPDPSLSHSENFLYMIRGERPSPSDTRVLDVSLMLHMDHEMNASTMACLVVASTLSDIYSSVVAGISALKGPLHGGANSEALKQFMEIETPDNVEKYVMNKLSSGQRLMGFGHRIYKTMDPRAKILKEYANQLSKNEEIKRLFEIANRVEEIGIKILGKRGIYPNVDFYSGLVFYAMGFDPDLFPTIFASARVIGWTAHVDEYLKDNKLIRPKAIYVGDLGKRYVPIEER

Molecular target: T1, MsCS (citrate synthase from Metallosphaera sedula) (Metallosphaera sedula, UniProt A4YGX6)
T1 construct: gene Msed_1522; C-terminal 6xHis tag (pET-30a, NdeI/XhoI), E. coli BL21(DE3)-T1R; homodimer about 85 kDa; modelled domains Met1-Arg370; printed peptide PLHGGANSE (212-221 as printed); His214, His253, Asp307 catalytic
Assay: DTNB absorbance at […] nm, inhibition kinetics
Type: biochemical

**Q.** Which Ki does the source give for O=C(O)CC(O)(CC(=O)O)C(=O)O [citrate] here?
**A.** 7.19 mM
